Data source: PubChem BioAssay AID1259254 (NCATS, 2017)
This is one part, drawn at random, of about 59,000 deposited reagents. About 1,550 of them (2.6%) were called active. 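G2 share is only a proxy for re-replication; each gene was hit by three separate siRNAs, and active genes were retested.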 A number with no mark means an inactive call. The numbers tell different reagents against one gene apart. Further read-outs or replicates are left out here. Not given: the amount of reagent.

- Screen: 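Finding genes that stop cells copying their DNA twice in one cycle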 (primary screen)
- Cell system: human HCT116 colorectal cancer cells
- Reagents: single siRNA against human genes
- Time to read-out: 3 days
- Measurement: 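Nuclei stained with Hoechst and imaged; cell-cycle phase assigned by DNA content; G2 share scaled per plate, non-targeting siRNA 0%, GMNN siRNA 100%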
- Reading the numbers: G2 robust z-score and G2 cells, % of GMNN control: higher = more G2 cells, more excess DNA replication
- Active means: 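Active siRNAs have a G2 robust z of 5 or more median absolute deviations over the median, which in these data means about 38% or higher of GMNN control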

EDF1 #1 | G2 robust z-score = 0.546; G2 cells, % of GMNN control = 6.81
EDF1 #2 | G2 robust z-score = 4.48; G2 cells, % of GMNN control = 34.5
EDF1 #3 | G2 robust z-score = -0.672; G2 cells, % of GMNN control = -1.76
SNRPG #1 | G2 robust z-score = 0.101; G2 cells, % of GMNN control = 3.68
SNRPG #2 | G2 robust z-score = 3.62; G2 cells, % of GMNN control = 28.4
SNRPG #3 | G2 robust z-score = 2.08; G2 cells, % of GMNN control = 17.6

Next part; the last 2 above are carried over.
SNRPG #2 | G2 robust z-score = 3.62; G2 cells, % of GMNN control = 28.4
SNRPG #3 | G2 robust z-score = 2.08; G2 cells, % of GMNN control = 17.6
SPANXB1 #1 | G2 robust z-score = 0.657; G2 cells, % of GMNN control = 7.59
SPANXB1 #2 | G2 robust z-score = 0.184; G2 cells, % of GMNN control = 4.26
SPANXB1 #3 | G2 robust z-score = 0.392; G2 cells, % of GMNN control = 5.72
GPAT4 #1 | G2 robust z-score = 9.45 (active); G2 cells, % of GMNN control = 69.5
GPAT4 #2 | G2 robust z-score = -0.604; G2 cells, % of GMNN control = -1.28
GPAT4 #3 | G2 robust z-score = -0.93; G2 cells, % of GMNN control = -3.58
